Laboratory results reported in the supplement of paper PMC7666118.
The other results are listed elsewhere or left out.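 The calls were made as follows: active = dose-dependent thermal stabilisation significant by F-test of dose-response against flat model at 10% FDR; inactive = not significant.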

Sequences of proteins named here, by UniProt entry; tags and fusion partners are left off. A change or cut given only in a name is not applied to a line headed by its entry.
UniProt Q6PJW8: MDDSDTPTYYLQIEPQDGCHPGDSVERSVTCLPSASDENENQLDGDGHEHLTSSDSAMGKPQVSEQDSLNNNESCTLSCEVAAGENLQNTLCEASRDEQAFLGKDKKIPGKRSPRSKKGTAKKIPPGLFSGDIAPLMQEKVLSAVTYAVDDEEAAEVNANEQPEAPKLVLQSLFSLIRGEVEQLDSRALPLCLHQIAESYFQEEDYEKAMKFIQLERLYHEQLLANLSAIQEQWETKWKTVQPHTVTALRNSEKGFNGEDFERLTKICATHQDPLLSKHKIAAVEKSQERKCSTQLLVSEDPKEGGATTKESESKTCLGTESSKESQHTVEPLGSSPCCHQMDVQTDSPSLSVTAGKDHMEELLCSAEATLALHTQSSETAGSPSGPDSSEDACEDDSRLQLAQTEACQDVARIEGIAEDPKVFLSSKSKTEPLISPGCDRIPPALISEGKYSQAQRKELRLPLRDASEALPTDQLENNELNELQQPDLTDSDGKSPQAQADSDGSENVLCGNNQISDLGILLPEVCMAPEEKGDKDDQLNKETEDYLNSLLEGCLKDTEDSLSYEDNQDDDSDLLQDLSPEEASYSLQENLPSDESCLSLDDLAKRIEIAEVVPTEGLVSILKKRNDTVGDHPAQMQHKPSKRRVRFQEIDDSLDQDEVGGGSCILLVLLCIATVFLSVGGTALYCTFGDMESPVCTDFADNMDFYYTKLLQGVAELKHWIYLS
UniProt Q8IWY9: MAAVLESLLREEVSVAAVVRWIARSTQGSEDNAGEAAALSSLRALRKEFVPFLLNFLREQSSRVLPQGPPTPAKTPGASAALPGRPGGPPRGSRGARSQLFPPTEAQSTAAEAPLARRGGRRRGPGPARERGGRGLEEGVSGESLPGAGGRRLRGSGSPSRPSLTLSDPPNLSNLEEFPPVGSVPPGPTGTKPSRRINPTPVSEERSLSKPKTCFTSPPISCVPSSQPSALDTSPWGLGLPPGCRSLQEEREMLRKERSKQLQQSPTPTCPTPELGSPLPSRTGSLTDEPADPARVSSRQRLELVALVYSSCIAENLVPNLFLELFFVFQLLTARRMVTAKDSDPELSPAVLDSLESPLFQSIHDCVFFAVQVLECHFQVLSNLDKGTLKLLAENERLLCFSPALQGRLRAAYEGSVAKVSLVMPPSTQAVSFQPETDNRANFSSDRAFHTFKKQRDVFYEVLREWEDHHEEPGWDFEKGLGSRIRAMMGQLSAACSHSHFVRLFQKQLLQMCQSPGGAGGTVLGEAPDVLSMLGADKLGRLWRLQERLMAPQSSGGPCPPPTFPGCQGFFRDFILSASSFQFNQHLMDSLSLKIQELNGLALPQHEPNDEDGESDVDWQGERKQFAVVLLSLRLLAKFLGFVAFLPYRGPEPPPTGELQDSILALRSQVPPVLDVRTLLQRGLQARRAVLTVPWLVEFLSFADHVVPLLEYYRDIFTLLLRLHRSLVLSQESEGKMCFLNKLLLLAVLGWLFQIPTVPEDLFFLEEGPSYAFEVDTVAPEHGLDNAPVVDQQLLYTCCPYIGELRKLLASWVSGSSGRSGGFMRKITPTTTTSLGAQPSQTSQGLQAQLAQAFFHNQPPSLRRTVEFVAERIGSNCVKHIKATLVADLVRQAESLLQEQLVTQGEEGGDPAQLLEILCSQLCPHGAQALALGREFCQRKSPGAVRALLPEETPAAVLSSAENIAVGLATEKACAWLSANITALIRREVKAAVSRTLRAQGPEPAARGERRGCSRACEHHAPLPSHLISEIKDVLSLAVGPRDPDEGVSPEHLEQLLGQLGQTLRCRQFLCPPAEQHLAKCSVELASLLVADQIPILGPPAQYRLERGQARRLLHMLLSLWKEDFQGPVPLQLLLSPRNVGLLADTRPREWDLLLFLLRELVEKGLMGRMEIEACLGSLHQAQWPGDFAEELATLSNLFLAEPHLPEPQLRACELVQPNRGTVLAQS
UniProt P62633: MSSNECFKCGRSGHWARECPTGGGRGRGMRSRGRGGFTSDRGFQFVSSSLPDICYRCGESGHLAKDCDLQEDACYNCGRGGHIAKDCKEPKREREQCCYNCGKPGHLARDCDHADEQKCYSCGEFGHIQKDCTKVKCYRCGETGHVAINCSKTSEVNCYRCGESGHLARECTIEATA
UniProt Q9UFW8: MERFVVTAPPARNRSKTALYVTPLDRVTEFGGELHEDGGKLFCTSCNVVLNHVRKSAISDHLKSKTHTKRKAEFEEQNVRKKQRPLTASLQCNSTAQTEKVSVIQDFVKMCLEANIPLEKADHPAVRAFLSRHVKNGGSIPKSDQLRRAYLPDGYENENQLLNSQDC
UniProt P42773: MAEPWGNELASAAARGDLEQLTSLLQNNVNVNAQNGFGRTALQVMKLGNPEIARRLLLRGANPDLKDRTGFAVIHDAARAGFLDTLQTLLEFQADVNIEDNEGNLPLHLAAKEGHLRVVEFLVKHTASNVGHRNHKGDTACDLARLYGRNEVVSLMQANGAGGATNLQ
UniProt O43439: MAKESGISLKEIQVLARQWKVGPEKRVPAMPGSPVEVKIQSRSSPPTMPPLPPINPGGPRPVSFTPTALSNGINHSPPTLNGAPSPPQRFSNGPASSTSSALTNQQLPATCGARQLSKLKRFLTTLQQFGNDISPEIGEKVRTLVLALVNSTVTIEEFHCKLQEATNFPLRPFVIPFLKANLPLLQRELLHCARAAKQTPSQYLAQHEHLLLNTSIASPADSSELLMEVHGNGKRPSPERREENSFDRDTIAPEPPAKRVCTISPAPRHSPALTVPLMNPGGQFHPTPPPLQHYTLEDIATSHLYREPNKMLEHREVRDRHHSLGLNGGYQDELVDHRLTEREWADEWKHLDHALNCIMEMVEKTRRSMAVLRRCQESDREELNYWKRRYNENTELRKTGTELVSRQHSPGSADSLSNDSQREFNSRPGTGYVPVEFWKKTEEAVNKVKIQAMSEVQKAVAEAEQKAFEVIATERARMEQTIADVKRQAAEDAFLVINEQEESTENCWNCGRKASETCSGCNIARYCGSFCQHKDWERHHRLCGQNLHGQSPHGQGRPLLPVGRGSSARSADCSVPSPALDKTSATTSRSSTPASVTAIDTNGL
UniProt Q9Y6G5, whole entry: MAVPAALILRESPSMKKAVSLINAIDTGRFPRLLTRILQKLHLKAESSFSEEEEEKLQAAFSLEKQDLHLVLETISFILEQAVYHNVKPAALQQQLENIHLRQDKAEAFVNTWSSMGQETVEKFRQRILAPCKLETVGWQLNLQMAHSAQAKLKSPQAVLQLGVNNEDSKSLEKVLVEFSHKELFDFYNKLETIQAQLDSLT
UniProt Q13185: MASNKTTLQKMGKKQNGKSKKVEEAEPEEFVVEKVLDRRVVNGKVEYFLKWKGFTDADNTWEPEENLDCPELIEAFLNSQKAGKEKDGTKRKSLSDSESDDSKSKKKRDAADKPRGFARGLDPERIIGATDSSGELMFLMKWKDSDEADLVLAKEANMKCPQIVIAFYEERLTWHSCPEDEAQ
UniProt Q9UBI1, whole entry: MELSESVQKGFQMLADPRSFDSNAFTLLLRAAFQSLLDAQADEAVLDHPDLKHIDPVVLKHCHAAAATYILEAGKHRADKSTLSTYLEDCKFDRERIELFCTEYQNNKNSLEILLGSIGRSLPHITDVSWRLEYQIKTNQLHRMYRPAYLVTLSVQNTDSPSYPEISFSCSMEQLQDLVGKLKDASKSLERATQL
UniProt Q4VC31: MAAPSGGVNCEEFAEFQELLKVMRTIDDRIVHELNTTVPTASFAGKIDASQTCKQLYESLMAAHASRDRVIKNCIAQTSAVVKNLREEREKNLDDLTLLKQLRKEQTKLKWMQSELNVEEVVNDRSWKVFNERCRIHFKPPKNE
UniProt Q86X02: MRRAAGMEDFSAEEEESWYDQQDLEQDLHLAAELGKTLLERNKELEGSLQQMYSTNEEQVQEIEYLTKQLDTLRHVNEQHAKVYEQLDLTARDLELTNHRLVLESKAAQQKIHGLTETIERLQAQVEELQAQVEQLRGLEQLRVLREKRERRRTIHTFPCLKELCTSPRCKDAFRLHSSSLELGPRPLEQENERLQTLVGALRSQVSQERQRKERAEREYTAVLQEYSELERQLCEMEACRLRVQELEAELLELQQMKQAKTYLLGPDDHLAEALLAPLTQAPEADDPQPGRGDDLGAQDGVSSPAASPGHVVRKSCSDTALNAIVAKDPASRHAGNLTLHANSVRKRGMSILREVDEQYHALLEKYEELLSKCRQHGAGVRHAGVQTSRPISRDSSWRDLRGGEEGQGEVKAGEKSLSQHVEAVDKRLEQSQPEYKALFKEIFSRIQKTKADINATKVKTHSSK
UniProt Q7Z7A1: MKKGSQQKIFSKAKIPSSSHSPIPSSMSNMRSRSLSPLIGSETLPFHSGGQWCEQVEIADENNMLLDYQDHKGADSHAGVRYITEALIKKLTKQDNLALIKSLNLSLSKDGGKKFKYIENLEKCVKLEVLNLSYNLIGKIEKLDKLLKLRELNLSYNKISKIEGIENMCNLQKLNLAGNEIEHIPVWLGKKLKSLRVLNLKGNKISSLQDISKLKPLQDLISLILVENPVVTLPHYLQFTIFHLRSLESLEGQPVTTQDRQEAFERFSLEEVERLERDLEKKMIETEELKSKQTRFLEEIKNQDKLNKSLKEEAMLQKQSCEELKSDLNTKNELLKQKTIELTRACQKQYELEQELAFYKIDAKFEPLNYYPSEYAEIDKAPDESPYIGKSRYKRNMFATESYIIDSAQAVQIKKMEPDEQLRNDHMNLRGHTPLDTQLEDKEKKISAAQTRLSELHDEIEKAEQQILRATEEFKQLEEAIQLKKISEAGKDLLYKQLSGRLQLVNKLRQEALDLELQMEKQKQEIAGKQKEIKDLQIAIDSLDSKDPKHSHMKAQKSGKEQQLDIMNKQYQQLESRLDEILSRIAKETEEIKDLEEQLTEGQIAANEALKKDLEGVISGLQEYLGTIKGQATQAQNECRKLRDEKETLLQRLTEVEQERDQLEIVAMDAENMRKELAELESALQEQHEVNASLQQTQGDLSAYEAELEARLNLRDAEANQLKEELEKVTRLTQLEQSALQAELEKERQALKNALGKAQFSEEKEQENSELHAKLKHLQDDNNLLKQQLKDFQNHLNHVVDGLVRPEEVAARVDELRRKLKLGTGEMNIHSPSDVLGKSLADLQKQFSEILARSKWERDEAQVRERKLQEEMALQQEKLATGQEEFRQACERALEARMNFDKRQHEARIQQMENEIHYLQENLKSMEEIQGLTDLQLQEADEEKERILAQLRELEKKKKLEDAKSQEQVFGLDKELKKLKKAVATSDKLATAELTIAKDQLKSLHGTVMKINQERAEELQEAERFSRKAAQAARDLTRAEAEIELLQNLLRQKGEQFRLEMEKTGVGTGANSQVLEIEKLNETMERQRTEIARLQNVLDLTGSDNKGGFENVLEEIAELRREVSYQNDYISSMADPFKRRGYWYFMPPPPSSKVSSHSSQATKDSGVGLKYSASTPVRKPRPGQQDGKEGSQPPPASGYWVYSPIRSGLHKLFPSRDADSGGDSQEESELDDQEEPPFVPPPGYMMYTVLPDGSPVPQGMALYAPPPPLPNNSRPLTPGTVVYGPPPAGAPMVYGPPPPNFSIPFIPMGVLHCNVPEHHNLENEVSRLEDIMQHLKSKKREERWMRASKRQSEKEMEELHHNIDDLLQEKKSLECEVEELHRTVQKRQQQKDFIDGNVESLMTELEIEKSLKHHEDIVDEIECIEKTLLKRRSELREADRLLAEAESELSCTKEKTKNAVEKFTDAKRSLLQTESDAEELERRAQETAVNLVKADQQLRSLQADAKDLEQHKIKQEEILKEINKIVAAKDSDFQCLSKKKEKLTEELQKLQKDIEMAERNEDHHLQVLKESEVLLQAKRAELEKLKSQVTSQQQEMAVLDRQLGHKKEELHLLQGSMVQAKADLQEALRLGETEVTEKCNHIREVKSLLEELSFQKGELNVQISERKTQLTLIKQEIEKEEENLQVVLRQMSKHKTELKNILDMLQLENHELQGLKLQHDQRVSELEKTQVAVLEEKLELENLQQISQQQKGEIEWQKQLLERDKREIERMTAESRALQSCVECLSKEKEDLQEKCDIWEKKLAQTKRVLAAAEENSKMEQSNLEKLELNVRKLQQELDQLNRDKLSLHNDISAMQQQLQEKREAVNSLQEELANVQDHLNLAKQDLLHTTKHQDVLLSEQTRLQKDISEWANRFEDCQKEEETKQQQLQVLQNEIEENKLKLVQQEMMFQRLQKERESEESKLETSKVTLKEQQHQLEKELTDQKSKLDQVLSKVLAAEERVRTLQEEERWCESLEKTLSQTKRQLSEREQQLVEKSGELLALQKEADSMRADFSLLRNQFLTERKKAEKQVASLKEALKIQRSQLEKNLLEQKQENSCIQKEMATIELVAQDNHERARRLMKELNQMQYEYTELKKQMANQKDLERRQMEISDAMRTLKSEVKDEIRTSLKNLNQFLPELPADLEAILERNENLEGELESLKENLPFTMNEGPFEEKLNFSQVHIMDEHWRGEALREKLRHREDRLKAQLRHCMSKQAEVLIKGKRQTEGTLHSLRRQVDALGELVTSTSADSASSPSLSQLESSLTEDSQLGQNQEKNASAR

These targets were tested with Nc1nc2c(ncn2[C@@H]2O[C@H](COP(=O)(O)OP(=O)(O)OP(=O)(O)O)[C@@H](O)[C@H]2O)c(=O)[nH]1 (assay: dose-dependent thermal stabilisation call (2D-TPP, DLPTP, 10% FDR) (binary (1 = stabilised)); higher = stabilised by the compound). Settings: system: Jurkat gel-filtered lysate; concentration range 1-500 µM.

Row | Target | dose-dependent thermal stabilisation call
1 | CCDC88A (UniProt Q3V6T2) | inactive: 0
2 | CDADC1 (UniProt Q9BWV3) | inactive: 0
3 | COX5B (UniProt P10606) | inactive: 0
4 | CNST (UniProt Q6PJW8) | inactive: 0
5 | CDAN1 (UniProt Q8IWY9) | inactive: 0
6 | CBX5 (UniProt P45973) | inactive: 0
7 | CNBP (UniProt P62633) | inactive: 0
8 | CGGBP1 (UniProt Q9UFW8) | inactive: 0
9 | CASP10 (UniProt Q92851) | inactive: 0
10 | CNDP2 (UniProt Q96KP4) | inactive: 0
11 | CC2D1A (UniProt Q6P1N0) | active: 1
12 | CCDC88B (UniProt A6NC98) | inactive: 0
13 | CEP135 (UniProt Q66GS9) | inactive: 0
14 | CASTOR1 (UniProt Q8WTX7) | inactive: 0
15 | CHM (UniProt P24386) | inactive: 0
16 | CCT6A (UniProt P40227) | inactive: 0
17 | COPS3 (UniProt Q9UNS2) | inactive: 0
18 | CPTP (UniProt Q5TA50) | active: 1

Row | Target | dose-dependent thermal stabilisation call
19 | CDKN2C (UniProt P42773) | inactive: 0
20 | CBFA2T2 (UniProt O43439) | inactive: 0
21 | CCDC22 (UniProt O60826) | inactive: 0
22 | CHAMP1 (UniProt Q96JM3) | inactive: 0
23 | CHCHD3 (UniProt Q9NX63) | inactive: 0
24 | CD48 (UniProt P09326) | inactive: 0
25 | CHEK1 (UniProt O14757) | inactive: 0
26 | COMMD10 (UniProt Q9Y6G5) | inactive: 0
27 | COMMD9 (UniProt Q9P000) | inactive: 0
28 | CCT7 (UniProt Q99832) | inactive: 0
29 | CBX3 (UniProt Q13185) | inactive: 0
30 | CDK1 (UniProt P06493) | inactive: 0
31 | COMMD3 (UniProt Q9UBI1) | inactive: 0
32 | CCDC58 (UniProt Q4VC31) | inactive: 0
33 | CDR2L (UniProt Q86X02) | inactive: 0
34 | CORO1C (UniProt Q9ULV4) | inactive: 0
35 | CHMP2A (UniProt O43633) | inactive: 0
36 | CNTRL (UniProt Q7Z7A1) | inactive: 0

A different layout for part of the listing above:
Row	Target	dose-dependent thermal stabilisation call
14	CASTOR1 (UniProt Q8WTX7)	inactive: 0
15	CHM (UniProt P24386)	inactive: 0
